Experimental data taken from patent US20230338510A1, “NOVEL C[…] EPITOPE P[…] AND USE THEREOF” (SHANGHAI INSTITUTE OF MATERIA MEDICA, CHINESE ACADEMY OF …, priority 2020, published 2023).
No constants are given. Whether binding was seen depends on the method and setting. Some results given as binding are weak or reduced against the parent protein; the word gives no strength.

Sequences of proteins named here, by UniProt entry; tags and fusion partners are left off. Residues count along the entry.
UniProt Q9BYF1, residues 18-740: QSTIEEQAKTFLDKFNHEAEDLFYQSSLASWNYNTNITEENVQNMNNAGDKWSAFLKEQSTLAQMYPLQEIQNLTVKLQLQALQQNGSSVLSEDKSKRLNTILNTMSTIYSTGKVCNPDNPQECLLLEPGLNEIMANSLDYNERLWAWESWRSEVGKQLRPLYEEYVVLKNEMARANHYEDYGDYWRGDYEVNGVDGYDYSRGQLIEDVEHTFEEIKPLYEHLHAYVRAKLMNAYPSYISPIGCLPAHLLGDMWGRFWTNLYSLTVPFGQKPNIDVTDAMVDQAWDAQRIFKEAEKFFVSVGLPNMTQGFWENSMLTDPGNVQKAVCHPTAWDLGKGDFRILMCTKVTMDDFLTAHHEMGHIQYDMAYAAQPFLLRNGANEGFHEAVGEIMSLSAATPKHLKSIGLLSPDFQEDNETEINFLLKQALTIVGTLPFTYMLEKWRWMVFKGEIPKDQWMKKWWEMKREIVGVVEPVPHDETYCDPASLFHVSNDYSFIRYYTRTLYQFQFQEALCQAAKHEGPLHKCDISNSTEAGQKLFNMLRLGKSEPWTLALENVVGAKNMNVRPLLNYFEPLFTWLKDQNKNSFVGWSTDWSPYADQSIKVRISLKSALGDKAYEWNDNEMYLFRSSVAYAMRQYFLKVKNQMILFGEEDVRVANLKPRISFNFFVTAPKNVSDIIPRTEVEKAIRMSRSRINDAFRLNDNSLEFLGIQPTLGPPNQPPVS

How the values were obtained:
human ACE2 [1] = biological target: T1, human ACE2 (Homo sapiens, UniProt Q9BYF1); test: ELISA (FIG. 10 legend)
human ACE2 [2] = biological target: T1, human ACE2; test: ELISA, ACE2-coated plate (10 ug/mL), biotin-labelled LP2 at 1, 0.5 and 0.25 ug/mL, HRP-streptavidin

Question: Which binding (human ACE2 [1]) does the source give for AKFVAAWTLKAAAGGGGYGFQPTNGVGYQPGGGGNYLYRLFRKSNLKPF (labeled with biotin (site not stated) in the ACE2 binding ELISA) [polypeptide LP2] here?
Answer: binds

Question: And the binding (human ACE2 [2])?
Answer: binds
